For at least one entry, the source does not settle the construct or the ends of the probe. A weaker result is weaker than the reference pair of the same experiment. Tags and fusion partners may be left off the protein sequences shown.
What was measured:
[1] = target: T1, Cren7 (Sulfolobus solfataricus) (UniProt Q97ZE3); experiment: thermal denaturation (A260); conditions: R15 strand is RNA; Tm: 10 mM potassium phosphate pH 7.0, 20-90 C; recombinant protein; DNA:RNA hybrid
T1 sequence (looked up, limits assumed): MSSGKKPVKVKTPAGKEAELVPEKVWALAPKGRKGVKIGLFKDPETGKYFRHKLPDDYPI

[2] = target: T1, Cren7 (Sulfolobus solfataricus); experiment: EMSA; conditions: 4 mM Mg2+, 25 C; R30 strand is RNA; EMSA: 50 mM Tris-HCl pH 8.0, 2 mM beta-mercaptoethanol, 0.1 mg/ml BSA, 4 mM MgCl2, 5% glycerol, 2 nM probe, 10 min at 25 C (room temperature), 5% PAGE in 0.1x TBE; recombinant protein; label: 32P on R30; DNA:RNA hybrid

| Sequence | binding result [1] | binding result [2] |
| --- | --- | --- |
| UGCAUCCUUCAAGAC / GTCTTGAAGGATGCA [15-bp RNA:DNA hybrid (R15/Com15)] | binds more weakly |  |
| UGCUUCCUUCAAUGUGCUGGGAUCCUACAA / TTGTAGGATCCCAGCACATTGAAGGAAGCA [30-bp RNA:DNA hybrid (R30/Com30)] |  | binds more weakly |
